Not every detail of the peptide structures is certain; ends, links or a residue may be inferred.
What was measured:
[1] = target: T1, Aβ42 WT (Homo sapiens, UniProt P05067); assay: ThT competition assay, inhibition of Aβ42 WT aggregation; format: biochemical; conditions: 10 μM each peptide, 1:1 WT:variant
T1 construct: Synthetic Aβ42 WT or variant peptides were purchased from Biomatik; purchased Biomatik; host or cells: synthetic peptide

Amino acid sequences for entries named in this document (tags omitted). Residues count along the entry.
UniProt P05067, 672-713: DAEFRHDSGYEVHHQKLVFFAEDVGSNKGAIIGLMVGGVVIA

[2] = target: T2, WT Aβ42 fibrils (Homo sapiens, UniProt P05067); assay: Disassembly of WT Aβ42 fibrils (ThT fluorescence); format: biochemical; conditions: 10 µM Aβ42 WT with 5 μM, 10 µM and 20 μM variant peptide, 40 hours at 37° C.
T2 construct: Synthetic Aβ42 WT or variant peptides were purchased from Biomatik; purchased Biomatik; host or cells: synthetic peptide

## CC[C@H](C)[C@H](NC(=O)[C@H](C)NC(=O)CNC(=O)[C@H](CCCCN)NC(=O)[C@H](CC(N)=O)NC(=O)[C@H](CO)NC(=O)CNC(=O)[C@@H](NC(=O)[C@H](CC(=O)O)NC(=O)[C@H](CCC(=O)O)NC(=O)[C@H](CC(=O)O)NC(=O)[C@H](Cc1ccccc1)NC(=O)[C@H](CC(=O)O)NC(=O)[C@@H]1CCCN1C(=O)[C@H](CC(C)C)NC(=O)[C@H](CCCCN)NC(=O)[C@H](CCC(N)=O)NC(=O)[C@H](Cc1c[nH]cn1)NC(=O)[C@H](Cc1c[nH]cn1)NC(=O)[C@@H](NC(=O)[C@H](CCC(=O)O)NC(=O)[C@H](Cc1ccc(O)cc1)NC(=O)CNC(=O)[C@H](CO)NC(=O)[C@H](CC(=O)O)NC(=O)[C@H](Cc1c[nH]cn1)NC(=O)[C@H](CCCNC(=N)N)NC(=O)[C@H](Cc1ccccc1)NC(=O)[C@H](CCC(=O)O)NC(=O)[C@H](C)NC(=O)[C@@H](N)CC(=O)O)C(C)C)C(C)C)C(=O)N[C@H](C(=O)NCC(=O)N[C@@H](CC(C)C)C(=O)N[C@@H](CCSC)C(=O)N[C@H](C(=O)NCC(=O)NCC(=O)N[C@H](C(=O)N[C@H](C(=O)N[C@H](C(=O)N[C@@H](C)C(=O)O)[C@@H](C)CC)C(C)C)C(C)C)C(C)C)[C@@H](C)CC [Aβ42 (V18P/F19D/A21D)]
[1]
  inhibition of Aβ42 WT aggregation (competition assay): completely attenuated the aggregation of the Aβ42 WT peptide
[2]
  change in ThT fluorescence of WT Aβ42 fibrils: concentration-dependent reduction in ThT fluorescence

Source: patent US20250269058A1, “GENE THERAPY FOR TREATING NEURODEGENERATIVE DISEASES” (ABRAIN, priority 2021, published 2025)
